Laboratory results: the supplement of paper PMC8728848
The list shows a part of the results.

Tests used:
Test in all cases: glycan array binding signal (z-score within array); higher = stronger binding
Details in all cases: glycan notation: IUPAC condensed, linker removed
[1] = target: Fuc(a1-2)Gal
Outline: (§1)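 The binding signal is a Z-score computed within each array. Data were drawn from 3228 arrays in the Consortium for Functional Glycomics database, restricted to those with a known protein sequence. Scores were averaged over arrays of the same protein sequence at different concentrations or buffers, and over linkers, and negative values can be taken as non-binding.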

[2] = target: Fuc(a1-2)Gal(b1-3)GalNAc
Outline: as §1

[3] = target: Fuc(a1-2)Gal(b1-3)GalNAc(b1-3)Gal
Outline: as §1

[4] = target: Fuc(a1-2)Gal(b1-3)GalNAc(b1-3)Gal(a1-4)Gal(b1-4)Glc
Outline: as §1

[5] = target: Fuc(a1-2)Gal(b1-3)GalNAc(b1-4)[Neu5Ac(a2-3)]Gal(b1-4)Glc
Outline: as §1

[6] = target: Fuc(a1-2)Gal(b1-3)GlcNAc
Outline: as §1

[7] = target: Fuc(a1-2)Gal(b1-3)GlcNAc(b1-2)Man(a1-3)[Fuc(a1-2)Gal(b1-3)GlcNAc(b1-2)Man(a1-6)]Man(b1-4)GlcNAc(b1-4)GlcNAc
Outline: as §1

[8] = target: Fuc(a1-2)Gal(b1-3)GlcNAc(b1-3)Gal(b1-4)Glc
Outline: as §1

[9] = target: Fuc(a1-2)Gal(b1-3)GlcNAc(b1-3)[Gal(b1-4)[Fuc(a1-3)]GlcNAc(b1-6)]Gal(b1-4)Glc
Outline: as §1

[10] = target: Fuc(a1-2)Gal(b1-3)[Fuc(a1-4)]GlcNAc
Outline: as §1

[11] = target: Fuc(a1-2)Gal(b1-3)[Fuc(a1-4)]GlcNAc(b1-2)Man(a1-3)[Fuc(a1-2)Gal(b1-3)[Fuc(a1-4)]GlcNAc(b1-2)Man(a1-6)]Man(b1-4)GlcNAc(b1-4)GlcNAc
Outline: as §1

[12] = target: Fuc(a1-2)Gal(b1-4)Glc
Outline: as §1

[13] = target: Fuc(a1-2)Gal(b1-4)Glc6S
Outline: as §1

[14] = target: Fuc(a1-2)Gal(b1-4)GlcNAc
Outline: as §1

[15] = target: Fuc(a1-2)Gal(b1-4)GlcNAc(b1-2)Man(a1-3)[Fuc(a1-2)Gal(b1-4)GlcNAc(b1-2)Man(a1-6)]Man(b1-4)GlcNAc(b1-4)GlcNAc
Outline: as §1

[16] = target: Fuc(a1-2)Gal(b1-4)GlcNAc(b1-3)Gal(b1-4)GlcNAc
Outline: as §1

[17] = target: Fuc(a1-2)Gal(b1-4)GlcNAc(b1-3)Gal(b1-4)GlcNAc(b1-3)Gal(b1-4)GlcNAc
Outline: as §1

[18] = target: Fuc(a1-2)Gal(b1-4)GlcNAc6S
Outline: as §1

[19] = target: Fuc(a1-2)Gal(b1-4)[Fuc(a1-3)]GlcNAc
Outline: as §1

[20] = target: Fuc(a1-2)Gal(b1-4)[Fuc(a1-3)]GlcNAc(b1-2)Man(a1-3)[Fuc(a1-2)Gal(b1-4)[Fuc(a1-3)]GlcNAc(b1-2)Man(a1-6)]Man(b1-4)GlcNAc(b1-4)GlcNAc
Outline: as §1

[21] = target: Fuc(a1-2)Gal(b1-4)[Fuc(a1-3)]GlcNAc(b1-3)Gal(b1-4)[Fuc(a1-3)]GlcNAc
Outline: as §1

[22] = target: Fuc(a1-2)Gal(b1-4)[Fuc(a1-3)]GlcNAc(b1-3)Gal(b1-4)[Fuc(a1-3)]GlcNAc(b1-3)Gal(b1-4)[Fuc(a1-3)]GlcNAc
Outline: as §1

[23] = target: Fuc(a1-2)Gal6S(b1-4)Glc
Outline: as §1

[24] = target: Fuc(a1-2)Gal6S(b1-4)Glc6S
Outline: as §1

[25] = target: Fuc(a1-2)Gal6S(b1-4)GlcNAc
Outline: as §1

[26] = target: Fuc(a1-2)[Gal(a1-3)]Gal
Outline: as §1

[27] = target: Fuc(a1-2)[Gal(a1-3)]Gal(b1-3)GlcNAc
Outline: as §1

[28] = target: Fuc(a1-2)[Gal(a1-3)]Gal(b1-3)GlcNAc(b1-2)Man(a1-3)[Fuc(a1-2)[Gal(a1-3)]Gal(b1-3)GlcNAc(b1-2)Man(a1-6)]Man(b1-4)GlcNAc(b1-4)GlcNAc
Outline: as §1

[29] = target: Fuc(a1-2)[Gal(a1-3)]Gal(b1-4)Glc
Outline: as §1

[30] = target: Fuc(a1-2)[Gal(a1-3)]Gal(b1-4)GlcNAc
Outline: as §1

B1: PP2A1 (Arabidopsis thaliana) (protein)
chain: MFRNQDSKYLIPVQKEAPPVTTLPMKASTVKSPHNCEAILRDADPPISLSSVNLSEQLRSGVFLKPKKQIKYWVDERNSNCFMLFAKNLSITWSDDVNYWTWFTEKESPNENVEAVGLKNVCWLDITGKFDTRNLTPGIVYEVVFKVKLEDPAYGWDTPVNLKLVLPNGKEKPQEKKVSLRELPRYKWVDVRVGEFVPEKSAAGEITFSMYEHAAGVWKKGLSLKGVAIRPKQHHHHHH
[1]
  glycan array binding signal (z-score): -0.212
[2]
  glycan array binding signal (z-score): -0.262
[3]
  glycan array binding signal (z-score): -0.056
[4]
  glycan array binding signal (z-score): -0.589
[5]
  glycan array binding signal (z-score): -0.487
[6]
  glycan array binding signal (z-score): -0.319
[7]
  glycan array binding signal (z-score): 0.319
[8]
  glycan array binding signal (z-score): -0.183
[9]
  glycan array binding signal (z-score): -0.222
[10]
  glycan array binding signal (z-score): -0.217
[11]
  glycan array binding signal (z-score): 1.26
[12]
  glycan array binding signal (z-score): -0.059
[13]
  glycan array binding signal (z-score): 0.159
[14]
  glycan array binding signal (z-score): -0.545
[15]
  glycan array binding signal (z-score): 0.48
[16]
  glycan array binding signal (z-score): -0.347
[17]
  glycan array binding signal (z-score): -0.309
[18]
  glycan array binding signal (z-score): -0.023
[19]
  glycan array binding signal (z-score): -0.286
[20]
  glycan array binding signal (z-score): 0.66
[21]
  glycan array binding signal (z-score): -0.471
[22]
  glycan array binding signal (z-score): -0.237
[23]
  glycan array binding signal (z-score): 0.434
[24]
  glycan array binding signal (z-score): 0.934
[25]
  glycan array binding signal (z-score): 0.065
[26]
  glycan array binding signal (z-score): 0.071
[27]
  glycan array binding signal (z-score): -0.478
[28]
  glycan array binding signal (z-score): 0.483
[29]
  glycan array binding signal (z-score): -0.572
[30]
  glycan array binding signal (z-score): -0.403
